At least one structure is not confirmed: it was looked up by name or label, or the drawing left a doubt.
Columns and labels:
Type in all cases: cell-based
[1] = test system: full-length Gaussia princeps luciferase; test: Activity of full-length Gaussia luciferase alone in H4 cells; settings: Example 5, FIG. 5c
Description: (§1) For controls in this assay, vehicle (i.e., DMSO), rapamycin, and bafilomycin A were used. Rapamycin, or sirolimus, is a small molecule that activates autophagy by inhibiting mTOR (mammalian target of rapamycin). […] To test this possibility, cells expressing α-synuclein were treated with each of the compounds and a cell permeable, resazurin-based assay was used to test for cell viability.
(§2) H4 neuroglioma cells (ATCC, HTB-148) were maintained in Dulbecco's Modified Eagle Medium plus high glucose, L-glutamine, and sodium pyruvate (ThermoFisher, 11995-065) with 10% heat-inactivated fetal bovine serum (ThermoFisher, 16140071) and 1% antibiotic-antimycotic cocktail (ThermoFisher, 15240062) at 37° C. and 5% CO2. […] Following 24 hours of treatment, cells were washed 1 time with PBS and bioluminescence was measured using an automated CLARIOstar plate reader (Mandel, 430-0505). […] The bioluminescent signal generated by the luciferase enzyme was assessed at 470 nm over 5 seconds. Raw luminescence units were normalized to the DMSO vehicle control of each 96-well microplate. […] Fluorescence was automatically measured using a CLARIOstar plate reader (Mandel, 430-0505) and then normalized to the fluorescence measure of the DMSO vehicle control.

[2] = biological target: T1, α-synuclein oligomers (Homo sapiens, UniProt P37840); test: Immunoblot of crosslinked split YFP-tagged α-synuclein oligomers in rat primary cortical neuron lysates; set-up: full-length human α-synuclein fused to the N-terminal fragment of Venus YFP (V1 S); full-length human α-synuclein fused to the C-terminal fragment of Venus YFP (SV2); host or cells: rat (Sprague Dawley, E17) primary cortical neurons, AAV co-transduction; settings: losartan 100 μM, rapamycin 50 nM, rifabutin 20 μM
Description: FIGS. 7A-7E. […] (a) Five positive hits were tested for their ability to reduce α-synuclein oligomer levels in rat primary cortical neurons measured with YFP-based protein-fragment complementation. […] Fluorescence intensity was analyzed using Imaris image analysis software by measuring the mean fluorescence intensity of α-synuclein positive neurons throughout a 3D field of view generated by z-stack image acquisition using the “surfaces” module. The value generated for each neuron was normalized to the mean fluorescence intensity of neurons treated with vehicle alone (N=3-4 replicates of n=10 fields of view for each treatment; each data point represents an individual replicate) (nested one-way ANOVA with Dunnett's post-hoc test, *p<0.05, *** p<0.001). […] Bottom: Representative fluorescent microscopy images of neurons treated with vehicle, losartan, rapamycin, or rifabutin and expressing YFP alone. Scale bars are […]. (e) Representative immunoblot to detect oligomers of split YFP-tagged α-synuclein (crosslinked) in rat primary cortical neuron lysates (actin used as a loading control).
Finally, it was examined whether these 5 compounds that had effects in our invertebrate C. elegans model reduce α-synuclein oligomers and α-synuclein-mediated dopaminergic neurodegeneration in mammalian systems.

[3] = biological target: T1, α-synuclein oligomers; test: Gaussia luciferase protein-fragment complementation cell assay of α-synuclein oligomers in H4 neuroglioma cells; set-up: full-length human α-synuclein fused to the N-terminal fragment of Gaussia princeps luciferase (syn-luc1); full-length human α-synuclein fused to the C-terminal fragment of Gaussia princeps luciferase (syn-luc2); expressed in transfected cells; host or cells: H4 neuroglioma cells (ATCC, HTB-148), transient co-transfection; settings: rapamycin 2 μM, bafilomycin A1 50 nM
Description: as §1
as §2, with “control. […]” for “control.”

CO[C@H]1C[C@@H]2CC[C@@H](C)[C@@](O)(O2)C(=O)C(=O)N2CCCC[C@H]2C(=O)O[C@H]([C@H](C)C[C@@H]2CC[C@@H](O)[C@H](OC)C2)CC(=O)[C@H](C)/C=C(\C)[C@@H](O)[C@@H](OC)C(=O)[C@H](C)C[C@H](C)/C=C/C=C/C=C/1C [Rapamycin]
changes in the activity of full-length Gaussia luciferase alone [1]: No statistically significant changes | α-synuclein oligomers as detected by immunoblotting [2]: reduction | change in α-synuclein oligomer levels (active controls) [3]: decrease
